Reference: paper PMC6504893
Results are given in words; binding and its absence hold for the method and conditions named. In cells and extracts the contact can be indirect. Some results given as binding are weak or reduced against the parent protein; the word gives no strength. For some of these results: Where a sequence is shown, tags or fusion partners need not be part of it.

Chains of the proteins cited; added tags and fusions are not shown.
UniProt Q9UBF8: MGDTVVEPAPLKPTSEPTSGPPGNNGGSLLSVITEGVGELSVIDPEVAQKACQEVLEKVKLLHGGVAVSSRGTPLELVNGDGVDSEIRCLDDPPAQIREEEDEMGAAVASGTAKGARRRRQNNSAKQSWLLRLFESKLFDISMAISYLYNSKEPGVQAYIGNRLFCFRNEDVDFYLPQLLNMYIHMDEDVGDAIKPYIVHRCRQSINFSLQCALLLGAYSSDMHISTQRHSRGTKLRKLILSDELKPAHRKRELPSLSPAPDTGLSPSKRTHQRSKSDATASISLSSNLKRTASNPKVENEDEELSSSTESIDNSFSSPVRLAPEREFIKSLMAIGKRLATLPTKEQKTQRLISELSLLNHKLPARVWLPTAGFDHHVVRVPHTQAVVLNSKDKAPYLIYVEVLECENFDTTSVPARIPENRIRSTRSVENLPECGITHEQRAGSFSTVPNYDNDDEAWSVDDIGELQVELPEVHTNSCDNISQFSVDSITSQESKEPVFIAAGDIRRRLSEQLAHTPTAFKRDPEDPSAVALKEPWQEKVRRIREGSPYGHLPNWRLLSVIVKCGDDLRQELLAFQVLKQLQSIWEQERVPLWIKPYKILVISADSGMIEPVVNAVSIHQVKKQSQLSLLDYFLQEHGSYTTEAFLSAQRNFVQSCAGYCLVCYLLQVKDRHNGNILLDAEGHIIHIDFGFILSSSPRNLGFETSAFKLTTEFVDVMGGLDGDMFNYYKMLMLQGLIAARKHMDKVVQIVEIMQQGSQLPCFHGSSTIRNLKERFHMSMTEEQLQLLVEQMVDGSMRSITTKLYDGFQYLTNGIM
UniProt Q9BTU6: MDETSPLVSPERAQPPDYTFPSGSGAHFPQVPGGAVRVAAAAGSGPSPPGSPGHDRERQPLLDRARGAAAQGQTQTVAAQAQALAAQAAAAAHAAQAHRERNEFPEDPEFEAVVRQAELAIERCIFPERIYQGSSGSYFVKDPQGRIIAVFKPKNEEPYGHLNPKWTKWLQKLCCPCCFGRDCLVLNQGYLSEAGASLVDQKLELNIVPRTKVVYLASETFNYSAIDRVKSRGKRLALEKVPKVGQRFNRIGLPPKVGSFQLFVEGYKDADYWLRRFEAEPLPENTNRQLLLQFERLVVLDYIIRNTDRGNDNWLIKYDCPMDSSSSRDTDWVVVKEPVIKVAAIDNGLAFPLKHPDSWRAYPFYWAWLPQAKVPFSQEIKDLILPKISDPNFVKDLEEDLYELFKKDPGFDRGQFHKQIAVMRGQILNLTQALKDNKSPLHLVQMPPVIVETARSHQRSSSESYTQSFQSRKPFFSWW

Legend:
GFP-ATG13 = target: T1, GFP-ATG13 (UniProt O75143); test: co-IP; GFP-TRAP beads, IP buffer (50 mM Tris pH 7.4, 150 mM NaCl, 5 mM EDTA, 1% Triton X-100); HEK293A cells incubated in ES for 2 h; immunoblot
T1 sequence: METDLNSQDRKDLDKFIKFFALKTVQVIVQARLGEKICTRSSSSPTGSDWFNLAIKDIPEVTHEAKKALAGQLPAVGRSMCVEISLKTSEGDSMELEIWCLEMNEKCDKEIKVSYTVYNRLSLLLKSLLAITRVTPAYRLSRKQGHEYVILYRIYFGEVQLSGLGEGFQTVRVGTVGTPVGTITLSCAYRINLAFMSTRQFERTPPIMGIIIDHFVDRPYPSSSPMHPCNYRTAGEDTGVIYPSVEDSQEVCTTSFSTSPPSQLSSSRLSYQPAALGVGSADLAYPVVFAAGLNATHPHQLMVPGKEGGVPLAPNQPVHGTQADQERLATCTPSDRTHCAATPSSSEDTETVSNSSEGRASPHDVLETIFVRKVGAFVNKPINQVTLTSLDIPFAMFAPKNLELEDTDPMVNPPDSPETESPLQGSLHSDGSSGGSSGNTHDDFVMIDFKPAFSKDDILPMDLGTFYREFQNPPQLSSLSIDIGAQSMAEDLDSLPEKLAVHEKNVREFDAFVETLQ

[1] = target: T2, ATG9A (human (endogenous in HEK293A)) (UniProt Q7Z3C6); test: co-IP; detergent-solubilized cells; IP buffer (50 mM Tris pH 7.4, 150 mM NaCl, 5 mM EDTA, 1% Triton X-100); rabbit anti-ATG9A or rabbit IgG control on protein A Dynabeads, overnight at 4°C; immunoblot
T2 sequence: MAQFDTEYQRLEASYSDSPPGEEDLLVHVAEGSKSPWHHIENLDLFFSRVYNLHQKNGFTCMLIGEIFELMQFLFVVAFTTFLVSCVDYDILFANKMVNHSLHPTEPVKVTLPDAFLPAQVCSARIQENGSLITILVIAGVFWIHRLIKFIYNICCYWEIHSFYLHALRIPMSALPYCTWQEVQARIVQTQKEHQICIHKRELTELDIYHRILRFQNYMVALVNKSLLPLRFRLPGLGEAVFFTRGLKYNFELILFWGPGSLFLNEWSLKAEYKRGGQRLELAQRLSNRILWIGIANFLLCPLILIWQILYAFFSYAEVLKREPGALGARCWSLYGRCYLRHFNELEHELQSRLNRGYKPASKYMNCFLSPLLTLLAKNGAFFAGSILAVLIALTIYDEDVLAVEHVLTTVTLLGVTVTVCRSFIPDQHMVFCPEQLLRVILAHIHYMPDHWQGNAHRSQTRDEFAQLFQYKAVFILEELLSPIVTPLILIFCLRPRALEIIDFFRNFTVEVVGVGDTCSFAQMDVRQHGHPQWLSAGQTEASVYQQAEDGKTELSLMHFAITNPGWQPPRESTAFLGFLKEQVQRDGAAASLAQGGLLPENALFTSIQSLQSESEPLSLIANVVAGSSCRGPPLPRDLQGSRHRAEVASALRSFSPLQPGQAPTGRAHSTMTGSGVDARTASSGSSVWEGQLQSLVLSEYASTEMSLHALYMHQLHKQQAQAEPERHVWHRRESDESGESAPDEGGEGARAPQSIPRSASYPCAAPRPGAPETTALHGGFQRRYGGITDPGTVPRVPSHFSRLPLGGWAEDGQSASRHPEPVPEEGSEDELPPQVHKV

Row | Substance | binding (GFP-ATG13) | binding [1]
1 | PI4KIIIβ (from UniProt Q9UBF8 1-816) (enzyme) | binds | binds
2 | activated PI4KIIIβ pSer294 (from UniProt Q9UBF8 1-816) (enzyme) | binds | –
3 | PI4KIIα (from UniProt Q9BTU6 1-479) (enzyme) | – | binds
